Source: doi:10.1371/journal.pone.0140310, primary screening data, rounded.

All values are for the listed drug together with vismodegib (1 µM): CS(=O)(=O)c1ccc(C(=O)Nc2ccc(Cl)c(-c3ccccn3)c2)c(Cl)c1

Drug key:
selumetinib, 0.015 µM: Cn1cnc2c(F)c(Nc3ccc(Br)cc3Cl)c(C(=O)NOCCO)cc21
GW0742, 2 µM: Cc1cc(SCc2sc(-c3ccc(C(F)(F)F)c(F)c3)nc2C)ccc1OCC(=O)O
fingolimod, 2 µM: CCCCCCCCc1ccc(CCC(N)(CO)CO)cc1
docetaxel, 0.0001 µM: CC(=O)O[C@@]12CO[C@@H]1C[C@H](O)[C@@]1(C)C(=O)[C@H](O)C3=C(C)[C@@H](OC(=O)[C@H](O)[C@@H](NC(=O)OC(C)(C)C)c4ccccc4)C[C@@](O)([C@@H](OC(=O)c4ccccc4)[C@H]21)C3(C)C
darinaparsin, 0.4 µM: C[As](C)SC[C@H](NC(=O)CC[C@H](N)C(=O)O)C(=O)NCC(=O)O
bortezomib, 0.001 µM: CC(C)C[C@H](NC(=O)[C@H](Cc1ccccc1)NC(=O)c1cnccn1)B(O)O
VX-702, 0.4 µM: NC(=O)c1ccc(N(C(N)=O)c2c(F)cccc2F)nc1-c1ccc(F)cc1F
PLX4720, 0.08 µM: CCCS(=O)(=O)Nc1ccc(F)c(C(=O)c2c[nH]c3ncc(Cl)cc23)c1F
fludarabine, 0.2 µM: Nc1nc(F)nc2c1ncn2[C@@H]1O[C@H](CO)[C@@H](O)[C@@H]1O
etoposide, 0.02 µM: COc1cc([C@@H]2c3cc4c(cc3[C@@H](O[C@@H]3O[C@@H]5CO[C@@H](C)O[C@H]5[C@H](O)[C@H]3O)[C@H]3COC(=O)[C@H]23)OCO4)cc(OC)c1O
indole-3-carbinol, 0.8 µM: OCc1c[nH]c2ccccc12
everolimus, 0.02 µM: CO[C@H]1C[C@@H]2CC[C@@H](C)[C@@](O)(O2)C(=O)C(=O)N2CCCC[C@H]2C(=O)O[C@H]([C@H](C)C[C@@H]2CC[C@@H](OCCO)[C@H](OC)C2)CC(=O)[C@H](C)/C=C(\C)[C@@H](O)[C@@H](OC)C(=O)[C@H](C)C[C@H](C)/C=C/C=C/C=C/1C
erlotinib, 0.8 µM: C#Cc1cccc(Nc2ncnc3cc(OCCOC)c(OCCOC)cc23)c1
YM155, 0.0004 µM: COCC[n+]1c2c(n(Cc3cnccn3)c1C)C(=O)c1ccccc1C2=O
dovitinib, 0.1 µM: CN1CCN(c2ccc3nc(-c4c(N)c5c(F)cccc5[nH]c4=O)[nH]c3c2)CC1
nilotinib, 0.2 µM: Cc1cn(-c2cc(NC(=O)c3ccc(C)c(Nc4nccc(-c5cccnc5)n4)c3)cc(C(F)(F)F)c2)cn1

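The test systems are human melanoma cell lines, treated with two drugs together for 72 h and then stained and imaged. The read-out is cell count (nuclei) in % of the DMSO control; lower values mean stronger growth inhibition or killing. Every drug was used at one fixed concentration, the lower of two screened (a fifth of the higher). These are primary screening values without error estimates.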
Only some of the drugs and lines screened are listed, without regard to their results.
A dash means that no value is listed here.

Second drug	IPC-298	COLO 800	LOX IMVI	501mel	COLO 792	A375	A2058	C32	LB2518-MEL	COLO 829	G-361	A101D	IST-MEL1
bortezomib	97.3	84.2	74.1	-	101	98.6	93.8	113	79.5	84.0	52.5	67.9	103
nilotinib	95.8	73.0	97.6	-	98.5	94.6	95.0	96.9	107	139	105	98.2	103
fingolimod	86.7	83.7	68.8	-	92.2	73.0	96.8	84.1	79.9	92.1	112	103	111
fludarabine	86.7	89.1	89.7	-	99.0	15.6	93.6	106	112	96.5	90.8	104	91.0
GW0742	105	80.4	68.8	88.0	113	-	109	125	104	108	107	93.8	97.2
erlotinib	94.1	75.7	67.7	-	78.8	100	95.3	93.9	101	91.0	95.7	96.9	91.3
etoposide	94.2	84.6	163	-	86.6	81.4	94.0	103	114	131	97.1	95.5	102
darinaparsin	97.7	136	157	-	109	109	108	102	95.2	122	105	123	97.9
dovitinib	95.8	116	64.7	-	108	104	84.7	98.8	91.8	95.7	94.8	108	101
selumetinib	86.6	62.8	95.8	-	88.4	91.4	96.6	80.2	70.0	119	104	105	97.1
docetaxel	70.0	26.4	53.0	-	38.4	43.1	21.2	92.1	82.9	63.0	30.3	74.0	72.5
PLX4720	87.1	139	122	-	110	57.1	105	88.0	-	138	93.9	87.7	93.0
YM155	94.4	81.3	99.8	-	87.5	77.2	79.7	75.4	96.3	73.2	86.5	79.8	92.9
indole-3-carbinol	94.1	69.7	102	-	95.2	101	97.8	110	88.7	65.7	79.0	88.3	97.0
everolimus	73.3	72.0	52.6	-	51.0	59.6	70.6	84.2	69.4	78.0	73.8	77.0	81.9
VX-702	105	105	123	-	87.7	137	112	109	-	120	94.9	114	110